No constants are given. Whether binding was seen depends on the method and setting. In cells and extracts the contact can be indirect. A result given as binding can be weak or reduced; the word gives no strength. Where a sequence is shown, tags or fusion partners need not be part of it.

Experimental findings from paper PMC9508122 are described below.

The experiment concerns the target T1, TIPE1-Flag, full-length TIPE1 (FL) (UniProt Q8WVP5).
T1 sequence: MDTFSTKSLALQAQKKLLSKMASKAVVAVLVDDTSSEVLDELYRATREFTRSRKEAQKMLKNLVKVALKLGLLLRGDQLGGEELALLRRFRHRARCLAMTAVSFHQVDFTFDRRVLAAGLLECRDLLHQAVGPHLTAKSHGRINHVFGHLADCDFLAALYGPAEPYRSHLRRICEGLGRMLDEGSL
The experiment can be described thus: co-IP; HEK-293T cells transfected with Flag-tagged TIPE1 (or its truncations) and HA-tagged PRMT1 (full length or truncations), harvested 24 h after transfection; lysates with anti-HA or anti-Flag antibody, protein G agarose; western blot.
As to “PRMT1 truncation Δ4 (HA tag) (domain or fragment)”, the binding result is “binds”.
As to “PRMT1 truncation Δ1 (HA tag) (domain or fragment)”, the binding result was “binds”.
With “PRMT1 truncation Δ2 (HA tag) (domain or fragment)”, the binding entry is on record as “binds”.
